{"source": "patent US20040002517A1", "about": "(Chemagis Ltd., priority 2002, published 2004)", "conditions": "stored at 40° C.", "note": "Structures can show the parent of a compound that is named as a salt."}
{"smiles": "COc1cc2c(cc1OC)C(=O)C(CC1CCN(Cc3ccccc3)CC1)C2", "note": "(stereo not shown) [amorphous donepezil hydrochloride, donepezil hydrochloride]", "values": [{"measurement": "change in the impurity content", "value": "no change"}]}
